The labels stand for the following.
B1: RAD54L2 (protein, UniProt Q9Y4B4 1-1467)
chain: MSDESASGSDPDLDPDVELEDAEEEEEEEEVAVEECDRDDEEDLLDDPSLEGMCGTEHAQLGEDGQQPPRCTSTTSSQSEPSEQLRRHQGKNLASEDPKKKRAQKPSHMRRNIRKLLREDQLEPVTKAAQQEELERRKRLEQQRKDYAAPIPTVPLEFLPEEIALRASDGPQLPPRVLAQEVICLDSSSGSEDEKSSRDEVIELSSGEEDTLHIVDSSESVSEDDEEEEKGGTHVNDVLNQRDALGRVLVNLNHPPEEENVFLAPQLARAVKPHQIGGIRFLYDNLVESLERFKTSSGFGCILAHSMGLGKTLQVISFIDVLFRHTPAKTVLAIVPVNTLQNWLAEFNMWLPPPEALPADNKPEEVQPRFFKVHILNDEHKTMASRAKVMADWVSEGGVLLMGYEMYRLLTLKKSFATGRPKKTKKRSHPVIIDLDEEDRQQEFRREFEKALCRPGPDVVICDEGHRIKNCQASTSQALKNIRSRRRVVLTGYPLQNNLIEYWCMVDFVRPDFLGTRQEFSNMFERPILNGQCIDSTPQDVRLMRYRSHVLHSLLEGFVQRRGHTVLKIHLPAKEENVILVRLSKIQRDLYTQFMDRFRDCGSSGWLGLNPLKAFCVCCKIWNHPDVLYEALQKESLANEQDLDVEELGSAGTSARCPPQGTKGKGEDSTLASSMGEATNSKFLQGVGFNPFQERGNNIVTYEWAKDLLTNYQTGVLENSPKMVLLFHLIEESVKLGDKILVFSQSLSTLALIEEFLGKREVPCPPGTEGQGAQKWVRNISYFRLDGSTPAFERERLINQFNDPSNLTTWLFLLSTRAGCLGVNLIGANRVVVFDASWNPCHDAQAVCRVYRYGQKKPCYIYRLVADYTLEKKIYDRQISKQGMSDRVVDDLNPMLNFTRKEVENLLHFVEKEPAPQVSLNVKGIKESVLQLACLKYPHLITKEPFEHESLLLNRKDHKLTKAEKKAAKKSYEEDKRTSVPYTRPSYAQYYPASDQSLTSIPAFSQRNWQPTLKGDEKPVASVRPVQSTPIPMMPRHVPLGGSVSSASSTNPSMNFPINYLQRAGVLVQKVVTTTDIVIPGLNSSTDVQARINAGESIHIIRGTKGTYIRTSDGRIFAVRATGKPKVPEDGRMAASGSQGPSCESTSNGRHSASSPKAPDPEGLARPVSPDSPEIISELQQYADVAAARESRQSSPSTNAALPGPPAQLMDSSAVPGTALGTEPRLGGHCLNSSLLVTGQPCGDRHPVLDLRGHKRKLATPPAAQESSRRRSRKGHLPAPVQPYEHGYPVSGGFAMPPVSLNHNLTTPFTSQAGENSLFMGSTPSYYQLSNLLADARLVFPVTTDPLVPAGPVSSSSTATSVTASNPSFMLNPSVPGILPSYSLPFSQPLLSEPRMFAPFPSPVLPSNLSRGMSIYPGYMSPHAGYPAGGLLRSQVPPFDSHEVAEVGFSSNDDEDKDDDVIEVTGK
B2: ZMIZ1 (protein, UniProt Q9ULJ6 1-1067)
chain: MNSMDRHIQQTNDRLQCIKQHLQNPANFHNAATELLDWCGDPRAFQRPFEQSLMGCLTVVSRVAAQQGFDLDLGYRLLAVCAANRDKFTPKSAALLSSWCEELGRLLLLRHQKSRQSDPPGKLPMQPPLSSMSSMKPTLSHSDGSFPYDSVPWQQNTNQPPGSLSVVTTVWGVTNTSQSQVLGNPMANANNPMNPGGNPMASGMTTSNPGLNSPQFAGQQQQFSAKAGPAQPYIQQSMYGRPNYPGSGGFGASYPGGPNAPAGMGIPPHTRPPADFTQPAAAAAAAAVAAAAATATATATATVAALQETQNKDINQYGPMGPTQAYNSQFMNQPGPRGPASMGGSMNPASMAAGMTPSGMSGPPMGMNQPRPPGISPFGTHGQRMPQQTYPGPRPQSLPIQNIKRPYPGEPNYGNQQYGPNSQFPTQPGQYPAPNPPRPLTSPNYPGQRMPSQPSSGQYPPPTVNMGQYYKPEQFNGQNNTFSGSSYSNYSQGNVNRPPRPVPVANYPHSPVPGNPTPPMTPGSSIPPYLSPSQDVKPPFPPDIKPNMSALPPPPANHNDELRLTFPVRDGVVLEPFRLEHNLAVSNHVFHLRPTVHQTLMWRSDLELQFKCYHHEDRQMNTNWPASVQVSVNATPLTIERGDNKTSHKPLHLKHVCQPGRNTIQITVTACCCSHLFVLQLVHRPSVRSVLQGLLKKRLLPAEHCITKIKRNFSSVAASSGNTTLNGEDGVEQTAIKVSLKCPITFRRIQLPARGHDCKHVQCFDLESYLQLNCERGTWRCPVCNKTALLEGLEVDQYMWGILNAIQHSEFEEVTIDPTCSWRPVPIKSDLHIKDDPDGIPSKRFKTMSPSQMIMPNVMEMIAALGPGPSPYPLPPPPGGTNSNDYSSQGNNYQGHGNFDFPHGNPGGTSMNDFMHGPPQLSHPPDMPNNMAALEKPLSHPMQETMPHAGSSDQPHPSIQQGLHVPHPSSQSGPPLHHSGAPPPPPSQPPRQPPQAAPSSHPHSDLTFNPSSALEGQAGAQGASDMPEPSLDLLPELTNPDELLSYLDPPDLPSNSNDDLLSLFENN
B3: SKIL (protein, UniProt P12757 1-684)
chain: MENLQTNFSLVQGSTKKLNGMGDDGSPPAKKMITDIHANGKTINKVPTVKKEHLDDYGEAPVETDGEHVKRTCTSVPETLHLNPSLKHTLAQFHLSSQSSLGGPAAFSARHSQESMSPTVFLPLPSPQVLPGPLLIPSDSSTELTQTVLEGESISCFQVGGEKRLCLPQVLNSVLREFTLQQINTVCDELYIYCSRCTSDQLHILKVLGILPFNAPSCGLITLTDAQRLCNALLRPRTFPQNGSVLPAKSSLAQLKETGSAFEVEHECLGKCQGLFAPQFYVQPDAPCIQCLECCGMFAPQTFVMHSHRSPDKRTCHWGFESAKWHCYLHVNQKYLGTPEEKKLKIILEEMKEKFSMRSGKRNQSKTDAPSGMELQSWYPVIKQEGDHVSQTHSFLHPSYYLYMCDKVVAPNVSLTSAVSQSKELTKTEASKSISRQSEKAHSSGKLQKTVSYPDVSLEEQEKMDLKTSRELCSRLDASISNNSTSKRKSESATCNLVRDINKVGIGLVAAASSPLLVKDVICEDDKGKIMEEVMRTYLKQQEKLNLILQKKQQLQMEVKMLSSSKSMKELTEEQQNLQKELESLQNEHAQRMEEFYVEQKDLEKKLEQIMKQKCTCDSNLEKDKEAEYAGQLAELRQRLDHAEADRQELQDELRQEREARQKLEMMIKELKLQILKSSKTAKE
B4: SKI (protein, UniProt P12755 1-728)
chain: MEAAAGGRGCFQPHPGLQKTLEQFHLSSMSSLGGPAAFSARWAQEAYKKESAKEAGAAAVPAPVPAATEPPPVLHLPAIQPPPPVLPGPFFMPSDRSTERCETVLEGETISCFVVGGEKRLCLPQILNSVLRDFSLQQINAVCDELHIYCSRCTADQLEILKVMGILPFSAPSCGLITKTDAERLCNALLYGGAYPPPCKKELAASLALGLELSERSVRVYHECFGKCKGLLVPELYSSPSAACIQCLDCRLMYPPHKFVVHSHKALENRTCHWGFDSANWRAYILLSQDYTGKEEQARLGRCLDDVKEKFDYGNKYKRRVPRVSSEPPASIRPKTDDTSSQSPAPSEKDKPSSWLRTLAGSSNKSLGCVHPRQRLSAFRPWSPAVSASEKELSPHLPALIRDSFYSYKSFETAVAPNVALAPPAQQKVVSSPPCAAAVSRAPEPLATCTQPRKRKLTVDTPGAPETLAPVAAPEEDKDSEAEVEVESREEFTSSLSSLSSPSFTSSSSAKDLGSPGARALPSAVPDAAAPADAPSGLEAELEHLRQALEGGLDTKEAKEKFLHEVVKMRVKQEEKLSAALQAKRSLHQELEFLRVAKKEKLREATEAKRNLRKEIERLRAENEKKMKEANESRLRLKRELEQARQARVCDKGCEAGRLRAKYSAQIEDLQVKLQHAEADREQLRADLLREREAREHLEKVVKELQEQLWPRARPEAAGSEGAAELEP
B5: SIX5 (protein, UniProt Q8N196 1-739)
chain: MATLPAEPSAGPAAGGEAVAAAAATEEEEEEARQLLQTLQAAEGEAAAAAGAGAGAAAAGAEGPGSPGVPGSPPEAASEPPTGLRFSPEQVACVCEALLQAGHAGRLSRFLGALPPAERLRGSDPVLRARALVAFQRGEYAELYRLLESRPFPAAHHAFLQDLYLRARYHEAERARGRALGAVDKYRLRKKFPLPKTIWDGEETVYCFKERSRAALKACYRGNRYPTPDEKRRLATLTGLSLTQVSNWFKNRRQRDRTGAGGGAPCKSESDGNPTTEDESSRSPEDLERGAAPVSAEAAAQGSIFLAGTGPPAPCPASSSILVNGSFLAASGSPAVLLNGGPVIINGLALGEASSLGPLLLTGGGGAPPPQPSPQGASETKTSLVLDPQTGEVRLEEAQSEAPETKGAQVAAPGPALGEEVLGPLAQVVPGPPTAATFPLPPGPVPAVAAPQVVPLSPPPGYPTGLSPTSPLLNLPQVVPTSQVVTLPQAVGPLQLLAAGPGSPVKVAAAAGPANVHLINSGVGVTALQLPSATAPGNFLLANPVSGSPIVTGVALQQGKIILTATFPTSMLVSQVLPPAPGLALPLKPETAISVPEGGLPVAPSPALPEAHALGTLSAQQPPPAAATTSSTSLPFSPDSPGLLPNFPAPPPEGLMLSPAAVPVWSAGLELSAGTEGLLEAEKGLGTQAPHTVLRLPDPDPEGLLLGATAGGEVDEGLEAEAKVLTQLQSVPVEEPLEL
B6: TBX1 (protein, UniProt O43435 1-398)
chain: MHFSTVTRDMEAFTASSLSSLGAAGGFPGAASPGADPYGPREPPPPPPRYDPCAAAAPGAPGPPPPPHAYPFAPAAGAATSAAAEPEGPGASCAAAAKAPVKKNAKVAGVSVQLEMKALWDEFNQLGTEMIVTKAGRRMFPTFQVKLFGMDPMADYMLLMDFVPVDDKRYRYAFHSSSWLVAGKADPATPGRVHYHPDSPAKGAQWMKQIVSFDKLKLTNNLLDDNGHIILNSMHRYQPRFHVVYVDPRKDSEKYAEENFKTFVFEETRFTAVTAYQNHRITQLKIASNPFAKGFRDCDPEDWPRNHRPGALPLMSAFARSRNPVASPTQPSGTEKGGHVLKDKEVKAETSRNTPEREVELLRDAGGCVNLGLPCPAECQPFNTQGLVAGRTAGDRLC
B7: ZBTB34 (protein, UniProt Q8NCN2 1-500)
chain: MDSSSFIQFDVPEYSSTVLSQLNELRLQGKLCDIIVHIQGQPFRAHKAVLAASSPYFRDHSALSTMSGLSISVIKNPNVFEQLLSFCYTGRMSLQLKDVVSFLTAASFLQMQCVIDKCTQILESIHSKISVGDVDSVTVGAEENPESRNGVKDSSFFANPVEISPPYCSQGRQPTASSDLRMETTPSKALRSRLQEEGHSDRGSSGSVSEYEIQIEGDHEQGDLLVRESQITEVKVKMEKSDRPSCSDSSSLGDDGYHTEMVDGEQVVAVNVGSYGSVLQHAYSYSQAASQPTNVSEAFGSLSNSSPSRSMLSCFRGGRARQKRALSVHLHSDLQGLVQGSDSEAMMNNPGYESSPRERSARGHWYPYNERLICIYCGKSFNQKGSLDRHMRLHMGITPFVCKFCGKKYTRKDQLEYHIRGHTDDKPFRCEICGKCFPFQGTLNQHLRKNHPGVAEVRSRIESPERTDVYVEQKLENDASASEMGLDSRMEIHTVSDAPD

Protein sequences, listed by entry. Tags and fused reporters are not part of them.
UniProt Q04206: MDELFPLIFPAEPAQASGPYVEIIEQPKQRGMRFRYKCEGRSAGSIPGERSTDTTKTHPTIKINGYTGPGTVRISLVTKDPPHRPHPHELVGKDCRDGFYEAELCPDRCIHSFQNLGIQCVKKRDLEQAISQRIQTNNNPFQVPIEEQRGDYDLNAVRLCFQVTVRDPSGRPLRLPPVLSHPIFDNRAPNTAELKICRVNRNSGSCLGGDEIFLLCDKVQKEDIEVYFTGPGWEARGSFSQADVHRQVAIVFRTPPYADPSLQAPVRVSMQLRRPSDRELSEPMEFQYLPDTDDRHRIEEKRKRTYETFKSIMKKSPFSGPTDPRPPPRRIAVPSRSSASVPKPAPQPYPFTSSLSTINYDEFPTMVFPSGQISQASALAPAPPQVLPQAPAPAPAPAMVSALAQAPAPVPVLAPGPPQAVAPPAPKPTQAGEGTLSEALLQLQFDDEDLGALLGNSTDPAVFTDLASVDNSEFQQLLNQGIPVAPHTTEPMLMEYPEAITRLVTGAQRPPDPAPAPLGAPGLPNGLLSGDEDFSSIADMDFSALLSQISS

No constants are given. Whether binding was seen depends on the method and setting. In cells and extracts the contact can be indirect. A yes stands for co-enrichment or nearness to the bait. Other partners may have been found.

In the experiment the target is p65(wt)-HA-miniTurbo (human) (UniProt Q04206).
As to B1, the binding entry was “binds”.
The entry for B2 is “binds”; for B3 it is “binds”; for B4 it is “binds”.
As to B5, the binding entry is given as “binds”.
The same measure for B6: “binds”.
As for B7, the binding entry is recorded as “binds”.

These data come from publication PMC11850942.
